# Experimental data: PubChem BioAssay AID504467 (National Center for Advancing Translational Sciences (NCATS), 2011)
# In all, about 330,000 compounds went through this assay and about 7,700 (2.3%) were called active. Inconclusive means that the source gave no clear call. Such entries were picked first, then a sample of the others. Calls follow the shape of the dose curve; as a rule, active = well fitted inhibition curve with a large enough effect; inconclusive = small, poorly fitted or top-dose-only effect, or effect the other way; inactive = flat fitted curve, though single readings scatter. A potency beside an inconclusive call is a rough fit, not a confirmed value.
# Assay: qHTS screen for small molecules that inhibit ELG1-dependent DNA repair in human embryonic kidney (HEK293T) cells expressing luciferase-tagged ELG1; also: nearly all actives have a fitted effect of over 55% in size
# Details: HEK293T ELG1-luciferase reporter, luminescence, 16 h, DNA damage induced by 5-fluorouridine; series mostly up to 46.1 µM
# Procedure, shortened: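 In this reporter screen, reduction of luminescence relative to DMSO vehicle indicated activity. Compounds and 5-fluorouridine were added together to 2,000 cells per well, incubated for 16 hr at 37 °C, then developed with ONE-Glo.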
# Potency is read from the fitted curve at half-maximal effect.
row,SMILES,Potency
1,COc1ccc(C2=CC(=O)CC(C)(C)C2)cc1,"inconclusive: 29.1 µM [activator, partial curve, poor fit]"
2,CC(=O)NCc1cc(-c2nn(C)c(=O)c3ccccc23)ccc1C,"inconclusive: 32.6 µM [activator, partial curve, poor fit]"
3,COC(=O)c1c(NC(=O)C2COc3ccccc3O2)sc2c1CCN(C(C)=O)C2 (stereo unspecified),"inconclusive: 23.1 µM [inhibitor, partial curve]"
4,Cc1cccc(-n2ncc3c(=O)[nH]c(SCC(=O)NCCC4=CCCCC4)nc32)c1,inactive
5,Cn1ncc(Cl)c1C(=O)NC(=S)Nc1sc2c(c1C#N)CCCCC2,"inconclusive: 6.51 µM [activator, partial curve]"
6,O=C1COc2ccc(-c3csc(NCC4CCCO4)n3)cc2N1 (stereo unspecified),"inconclusive: 7.31 µM [activator, partial curve, poor fit]"
7,CC(OC(=O)c1ccc2ncsc2c1)C(=O)Nc1cccc(Cl)c1 (stereo unspecified),inactive
8,CCN(CC(=O)Nc1cc(Cl)ccc1C)C(=O)CCc1nc2ccccc2c(=O)[nH]1,inactive
9,CCOC(=O)Cc1csc(NC(=O)COc2ccc(C)cc2)n1,inactive
10,Cc1n(CC(O)COC2CCCCC2)c2ccccc2[n+]1C (stereo unspecified),"inconclusive: 0.0046 µM [inhibitor, full curve, poor fit]"
11,CCOc1ccc(/C=N/NC(=O)C(O)c2ccccc2)c(O)c1 (stereo unspecified),"inconclusive: 16.4 µM [inhibitor, single point]"
12,Cc1cccc(-n2c(CNC(=O)c3ccc(S(=O)(=O)N4CCCCC4)cc3)n[nH]c2=S)c1,inactive
13,Cc1cc(C)nc(/N=C(\N)Nc2ccc(SC(F)F)cc2)n1,"inconclusive: 20.6 µM [inhibitor, partial curve, poor fit]"
14,COC(=O)c1c(NC(=O)CN2CCN(c3ccccc3)CC2)c2c(C)cccc2n1C,"inconclusive: 29.1 µM [inhibitor, single point]"
15,CSc1ncccc1C(=O)NNc1cc(Cl)ccc1Cl,inactive
16,Cc1nn(C)cc1C(=O)Nc1cc(Oc2ccc(Cl)cc2)cc([N+](=O)[O-])c1,inactive
17,Cc1ccc(C(C)C)cc1S(=O)(=O)Nc1cccnc1,inactive
18,CCCCOC(=O)c1ccc(NC(=O)Nc2ccc(OC)c(OC)c2)cc1,"inconclusive: 23.1 µM [inhibitor, single point]"
19,Cc1cccc[n+]1CC(=O)Nc1cccc([N+](=O)[O-])c1,inactive
20,COc1ccc(/C=N/NC(=O)CSCc2ccc([N+](=O)[O-])cc2)cc1OC,"inconclusive: 23.1 µM [inhibitor, partial curve, poor fit]"
21,CC1(OC(=O)C2CCCC2)C(=O)C=C2C=C(c3ccsc3)N(CCc3c[nH]c4ccccc34)C=C2C1=O (stereo unspecified),inactive
22,O=S(=O)(Nc1ccc(-n2cccc2)cc1)c1ccc(Cl)cc1Cl,inactive
23,COc1ccc(-c2cc(C(=O)N3CCCCC3)c3ccccc3n2)cc1,"inconclusive: 1.83 µM [activator, full curve, poor fit]"
24,N#Cc1cccn1-c1nccc(-c2cccs2)n1,"inconclusive: 29.1 µM [activator, single point]"

# Given with bars between the fields: 4 of the compounds above
row | SMILES | Potency
12 | Cc1cccc(-n2c(CNC(=O)c3ccc(S(=O)(=O)N4CCCCC4)cc3)n[nH]c2=S)c1 | inactive
13 | Cc1cc(C)nc(/N=C(\N)Nc2ccc(SC(F)F)cc2)n1 | inconclusive: 20.6 µM [inhibitor, partial curve, poor fit]
14 | COC(=O)c1c(NC(=O)CN2CCN(c3ccccc3)CC2)c2c(C)cccc2n1C | inconclusive: 29.1 µM [inhibitor, single point]
15 | CSc1ncccc1C(=O)NNc1cc(Cl)ccc1Cl | inactive

# Remaining list, next part.

row,SMILES,Potency
1,Cn1c(=O)c2sccc2n(Cc2ccc(Br)cc2)c1=O,inactive
2,N#Cc1cccc(NC(=O)CNc2cc(S(=O)(=O)N3CCOCC3)ccc2N2CCCC2)c1,"inconclusive: 7.3 µM [inhibitor, partial curve, poor fit]"
3,CC(C)c1ccc2occ(-c3nn[nH]n3)c(=O)c2c1,"inconclusive: 29.1 µM [activator, partial curve, poor fit]"
4,O=C(CSc1nc2ccccc2c(=O)n1CC1CCCO1)NCc1ccc2c(c1)OCO2 (stereo unspecified),"inconclusive: 20.6 µM [inhibitor, single point]"
5,CCOc1ccc(N(Cc2cc3cc(OC)ccc3[nH]c2=O)S(C)(=O)=O)cc1,inactive
6,Cc1cccc(N2CCN(C(=O)CCCn3c(=S)[nH]c4cc5c(cc4c3=O)OCO5)CC2)c1C,active: 10.3 µM
7,Cc1nnc(SC2CC(=O)N(c3ccccc3)C2=O)s1 (stereo unspecified),inactive
8,CC(=O)c1ccc(N2CCN(C(=O)c3ccc(Br)cc3)CC2)c(F)c1,"inconclusive: 29.1 µM [inhibitor, single point]"
9,Cc1cc(C)c2[nH]c(O)c(N=NC(=O)c3cc4c(s3)CCCC4)c2c1,inactive
10,Cc1cc(Cl)ccc1NC(=O)CCC(=O)N/N=C/c1cc([N+](=O)[O-])ccc1O,active: 7.3 µM
11,C/C(CC(=O)Nc1ccc(Cl)cc1)=N\NC(=O)C(=O)N1CCCCC1,"inconclusive: 20.6 µM [activator, single point]"
12,COC(=O)Nc1ccc(S(=O)(=O)N2c3ccccc3CCC2C)cc1 (stereo unspecified),"inconclusive: 5.8 µM [inhibitor, full curve]"
13,CCc1ccc(NC(=S)Nn2cnnc2)cc1,"inconclusive: 20.6 µM [inhibitor, partial curve, poor fit]"
14,CCN(C(=O)COC(=O)c1c(C)c(-c2ccccc2)nc2ccccc12)C1CCS(=O)(=O)C1 (stereo unspecified),"inconclusive: 25.9 µM [inhibitor, partial curve, poor fit]"
15,Clc1ccccc1CNCc1ccncc1,"inconclusive: 20.6 µM [inhibitor, single point]"
16,COc1ccc(S(=O)(=O)NCCOc2ccccc2)cc1C,"inconclusive: 0.92 µM [activator, full curve, poor fit]"
17,Cc1cccc(C(=O)Nc2ccc3c(c2)C(=O)N(CC(C)C)C3=O)c1,"inconclusive: 29.1 µM [activator, single point]"
18,COc1ccc(C(=O)Nc2ccccc2C(=O)N/N=C/c2cccc3ccccc23)cc1,"inconclusive: 0.58 µM [activator, partial curve, poor fit]"
19,FC(F)(F)Oc1ccc(NC(=S)Nc2ccc(OC(F)(F)F)cc2)cc1,"inconclusive: 13 µM [inhibitor, partial curve]"
20,Cc1ccccc1NS(=O)(=O)c1ccc2c(c1)NC(=O)CO2,inactive
21,C/C(=N/O)c1ccc2c(c1)OCCOCCOc1cc(/C(C)=N/O)ccc1OCCOCCO2,"inconclusive: 18.4 µM [inhibitor, partial curve, poor fit]"
22,CCCCn1c(=O)c(Cc2ccccc2)c(O)c2ccccc21,inactive
23,Cc1ccc(C)c(NC2=NCC(=O)N2c2ccc3c(c2)OCCO3)c1,"inconclusive: 20.6 µM [activator, partial curve]"
24,CCOc1ccc(NC(=O)CCNC(=O)c2ccco2)cc1,"inconclusive: 16.4 µM [activator, partial curve, poor fit]"

row,SMILES,Potency
1,Cc1cccc(C)c1NC(=O)N1CCCCCCC1,inactive
2,O=C1C[C@H]2[C@H](CO)[C@@H](OC(=O)c3ccc(-c4ccccc4)cc3)C[C@H]2O1,"inconclusive: 16.4 µM [activator, partial curve]"
3,Cc1ccc2c(c1)N(C(=O)CCC(=O)NC1CCN(Cc3ccccc3)CC1)CC(C)O2 (stereo unspecified),inactive
4,CN(C)c1ccc(C(CNC(=O)c2ccc(C#N)cc2)c2c[nH]c3ccccc23)cc1 (stereo unspecified),"inconclusive: 23.1 µM [inhibitor, single point]"
5,Cc1ccc(C(=O)NCCn2cc(SCC(=O)Nc3cc(C)on3)c3ccccc32)cc1,"inconclusive: 6.51 µM [activator, single point]"
6,CC(=O)c1cc(F)ccc1OCC(=O)N1CCN(c2ccc(F)cc2)CC1,"inconclusive: 29.1 µM [inhibitor, single point]"
7,CC(=O)Oc1ccccc1/C=C/c1ccc2ccccc2[n+]1C,"inconclusive: 20.6 µM [activator, partial curve]"
8,CC(C)Oc1ccc(C(=O)NC(=S)Nc2ccc(CN3CCOCC3)cc2)cc1,"inconclusive: 29.1 µM [inhibitor, single point]"
9,O=C(Nc1nnc(CCOCCOCCc2nnc(NC(=O)c3ccco3)s2)s1)c1ccco1,"inconclusive: 23.1 µM [inhibitor, partial curve]"
10,Cc1cc(C(=O)CN2C(=O)NC3(CCCCC3C)C2=O)c(C)n1Cc1cccs1 (stereo unspecified),"inconclusive: 14.6 µM [activator, partial curve]"
11,C/C(=N/Nc1ncc(C(F)(F)F)cc1Cl)c1ccncc1,inactive
12,CC1CN(c2nnc(NC(=O)c3ccccc3)s2)CC(C)O1 (stereo unspecified),"inconclusive: 20.6 µM [activator, single point]"
13,CCOC(=O)COc1cc(-n2c(=S)[nH]c3cc(OC)c(OC)cc3c2=O)c(Cl)cc1Cl,inactive
14,Cc1ccc(N2CC(=O)Nc3c(sc4nc(C)cc(C)c34)C2=O)cc1,active: 23.1 µM
15,O=C(NCCc1ccc(Cl)cc1)c1cccs1,"inconclusive: 29.1 µM [activator, single point]"
16,O=C(N/N=C/c1ccc(N2CCCCC2)o1)c1ccccc1[N+](=O)[O-],inactive
17,CCCCn1c(N)c(N(CCC(C)C)C(=O)COC(=O)c2ccc3ccccc3c2)c(=O)[nH]c1=O,inactive
18,COc1ccc2c(-c3cc4ccc(OCc5ccc(F)cc5)cc4oc3=O)cc(=O)oc2c1,inactive
19,c1coc(-c2ccnc3ncnn23)c1,inactive
20,O=C(NC(=S)N1CCN(c2ccc([N+](=O)[O-])cc2)CC1)c1ccccc1Cl,"inconclusive: 16.4 µM [inhibitor, single point]"
21,Cn1nc(C(F)(F)F)c(-c2ccc(F)cc2)c1NC(=O)Nc1ccc(F)cc1,inactive
22,CS(=O)(=O)N(Cc1ccccc1)c1ccc(C(=O)Nc2ccc(C(N)=O)cc2)cc1,"inconclusive: 20.6 µM [activator, single point]"
23,Cc1ccc(Nc2ncnc(N)n2)cc1,"inconclusive: 29.1 µM [activator, single point]"
